Reference: publication PMC7070008
Results are given in words; binding and its absence hold for the method and conditions named. In cells and extracts the contact can be indirect. A result given as binding can be weak or reduced; the word gives no strength.

T1: plakoglobin (γ-catenin) (mouse (endogenous in mouse skeletal muscle, heart and liver)) (UniProt Q02257)
T1 sequence: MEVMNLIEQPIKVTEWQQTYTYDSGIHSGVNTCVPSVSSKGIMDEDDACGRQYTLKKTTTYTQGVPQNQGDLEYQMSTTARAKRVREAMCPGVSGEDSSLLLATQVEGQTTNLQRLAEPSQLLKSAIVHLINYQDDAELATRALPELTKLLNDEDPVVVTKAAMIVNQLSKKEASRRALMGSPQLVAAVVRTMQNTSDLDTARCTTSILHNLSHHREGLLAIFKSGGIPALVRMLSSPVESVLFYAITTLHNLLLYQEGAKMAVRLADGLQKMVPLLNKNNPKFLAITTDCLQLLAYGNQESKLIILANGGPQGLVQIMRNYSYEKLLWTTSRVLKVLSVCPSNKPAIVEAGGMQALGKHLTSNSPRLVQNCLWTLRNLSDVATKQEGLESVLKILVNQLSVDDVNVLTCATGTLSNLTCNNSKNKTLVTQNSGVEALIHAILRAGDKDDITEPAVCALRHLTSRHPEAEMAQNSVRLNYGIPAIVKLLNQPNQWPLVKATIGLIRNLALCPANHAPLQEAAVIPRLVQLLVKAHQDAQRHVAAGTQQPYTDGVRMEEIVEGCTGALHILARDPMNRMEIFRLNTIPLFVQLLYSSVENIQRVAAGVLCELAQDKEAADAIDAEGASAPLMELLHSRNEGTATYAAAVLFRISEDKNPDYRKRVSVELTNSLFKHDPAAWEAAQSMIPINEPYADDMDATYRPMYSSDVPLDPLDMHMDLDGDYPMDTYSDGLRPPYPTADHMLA

T2: α-1-syntrophin (mouse (endogenous in mouse skeletal muscle)) (UniProt Q61234)
T2 sequence: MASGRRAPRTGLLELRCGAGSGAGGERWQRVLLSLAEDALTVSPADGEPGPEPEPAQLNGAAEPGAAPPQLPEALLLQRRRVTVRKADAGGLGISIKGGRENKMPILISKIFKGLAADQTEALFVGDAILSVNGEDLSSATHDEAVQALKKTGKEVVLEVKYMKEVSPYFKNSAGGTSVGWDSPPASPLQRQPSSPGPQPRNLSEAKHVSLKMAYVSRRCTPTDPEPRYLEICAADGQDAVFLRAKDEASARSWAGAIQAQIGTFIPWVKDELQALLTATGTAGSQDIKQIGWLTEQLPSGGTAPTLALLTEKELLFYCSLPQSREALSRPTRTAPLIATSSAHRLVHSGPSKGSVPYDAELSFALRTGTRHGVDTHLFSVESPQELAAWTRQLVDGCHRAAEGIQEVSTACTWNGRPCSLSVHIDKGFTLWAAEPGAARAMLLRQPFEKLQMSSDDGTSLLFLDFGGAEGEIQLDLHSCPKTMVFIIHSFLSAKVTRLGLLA


Columns and labels:
[1] = target: T1, plakoglobin (γ-catenin) (mouse (endogenous in mouse skeletal muscle, heart and liver)); experiment: co-IP; coimmunoprecipitation in mouse heart and liver (Supplementary Fig. 2)
[2] = target: T1, plakoglobin (γ-catenin) (mouse (endogenous in mouse skeletal muscle, heart and liver)); experiment: co-IP; anti-plakoglobin from fraction #16 of a 10–40% glycerol gradient of the membrane-cytoskeleton fraction of mouse muscle; immunoblotting
[3] = target: T2, α-1-syntrophin (mouse (endogenous in mouse skeletal muscle)); experiment: co-IP; α-1-syntrophin antibody, membrane fractions or extracts of mouse muscle; also from mice injected with saline or glucose and muscles expressing shLacz or shJUP (Fig. 3c); immunoblotting
ΔN-plakoglobin = experiment: pull-down; 6His-tagged FL plakoglobin and 6His-V5-tagged truncation mutants purified from transfected mouse muscles on a Nickel column with a histidine gradient; immunoblotting and densitometric protein ratios
plakoglobin-ΔC = experiment: as above

| binding [1] | binding [2] | binding [3] | binding (ΔN-plakoglobin) | binding (plakoglobin-ΔC) | Molecule |
| --- | --- | --- | --- | --- | --- |
| binds | binds | binds | – | – | p85 regulatory subunit of PI3K |
| – | – | – | binds | binds | β-dystroglycan (protein, UniProt Q62165 652-893, glycosylated form detected (glycosylated β-dystroglycan)) SIVVEWTNNTLPLEPCPKEQIIGLSRRIADENGKPRPAFSNALEPDFKALSIAVTGSGSCRHLQFIPVAPPSPGSSAAPATEVPDRDPEKSSEDDVYLHTVIPAVVVAAILLIAGIIAMICYRKKRKGKLTLEDQATFIKKGVPIIFADELDDSKPPPSSSMPLILQEEKAPLPPPEYPNQSMPETTPLNQDTVGEYTPLRDEDPNAPPYQPPPPFTAPMEGKGSRPKNMTPYRSPPPYVPP |
